Laboratory results: PubChem BioAssay AID1259424 (University of Nebraska Medical Center, 2018)
Shown is one part, drawn at random, of about 14,000 deposited reagents. 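Higher correlation or smaller distance means closer resemblance to KSR1 loss; control wells, including KSR1 knockdowns, recur on many plates.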 The numbers tell different reagents against one gene apart. Not all columns of the deposit are shown. The record does not give: the time to read-out.

- Purpose: 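Rank knockdowns across the genome by resemblance to the KSR1 depletion profile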 (primary screen)
- System: human HCT116 colon cancer cells
- Reagent: siRNA pool against human genes, 50 nM
- Measured: 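Six signature mRNAs by branched-DNA multiplex assay, scaled to two housekeeping genes and non-targeting median, log2; matched to mean KSR1 knockdown profile by Pearson correlation and euclidean distance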
- Direction: mean correlation with KSR1 profile: higher = expression change more like KSR1 knockdown

mean correlation with KSR1 profile, by gene symbol and reagent
BICD1: #1 -0.81
TEAD3: #1 0.62
DHRS4: #1 -0.273
LEPROT: #1 -0.299
RDH5: #1 0.169
PPARA: #1 0.349; #2 0.467
ABCA1: #1 -0.29
IFNA21: #1 -0.356
AS3MT: #1 0.12
HEATR5B: #1 -0.876
IL10RA: #1 -0.036
CRYBA1: #1 -0.289
E2F2: #1 -0.509
IPO4: #1 0.409
GOLGA2: #1 0.548
VEPH1: #1 -0.312
GNB3: #1 0.068
ASNS: #1 0.163
GRB10: #1 0.314
STMN4: #1 0.648
FBXL3: #1 -0.256
CADM3: #1 0.861
LGALS2: #1 0.966
SACK1E: #1 -0.307
H2AC7: #1 -0.372
PLSCR4: #1 0.31
XDH: #1 -0.127
ANKRA2: #1 -0.034
GINS2: #1 -0.452
PNKD: #1 -0.371
SRC: #1 0.564
TNR: #1 -0.356
S1PR2: #1 0.709
AAGAB: #1 0.569
SEC23IP: #1 -0.701
FAN1: #1 -0.72
ENY2: #1 0.481
GPR83: #1 0.633
SMC4: #1 0.541
TRIM16: #1 -0.364
ADCK5: #1 0.602
MRE11: #1 -0.0647
NPM2: #1 -0.361
CPVL: #1 -0.311
PNMA2: #1 0.336
WDR33: #1 -0.421
DDHD1: #1 0.784
TSLIG3A: #1 -0.722
CDIN1: #1 0.0255
CCNG2: #1 -0.336
PCNT: #1 -0.505
SDHD: #1 -0.0152
PROKR1: #1 0.872
KRT82: #1 -0.0847
CTR9: #1 -0.888
KRTAP1-5: #1 0.66
TMPRSS15: #1 0.406
TRNT1: #1 -0.125
AQP4: #1 -0.291
CAMKMT: #1 0.544
AEBP1: #1 -0.21
TTC4: #1 -0.248
